# In PubChem BioAssay AID720533 (National Center for Advancing Translational Sciences (NCATS), 2013):
# The campaign covered roughly 18,000 compounds. About 750 (4.2%) were called active. This list was built around the results that the source calls inconclusive (neither active nor inactive); the mix of calls is not that of the screen. The call rests on the fitted dose curve; tested in HEK293 cells. Potencies of inconclusive entries are doubtful fits and often do not repeat.
# Assay: qHTS for Inhibitors of binding or entry into cells for Lassa Virus
# Conditions: Lassa virus pseudotyped entry inhibition, cell-based qHTS; activity change, negative = inhibition: at 49.2 µM (top of the series) unless noted
# On the % scale 0 is the no-effect control and ±100 the full control effect; potency means the concentration at half of the fitted maximal effect.
SMILES,Potency,"activity change, negative = inhibition"
COc1cccc(N(C)C(=S)Oc2ccc3c(c2)CCCC3)n1,"inconclusive: 35.5 µM [inhibitor, single point]",
COc1ccccc1CCNc1ncnc2sc(C(=O)N3CCCC3)c(C)c12,"inconclusive: 25.1 µM [inhibitor, single point]",
O=c1c(CN2CCOc3ccc(CN4CCC(Oc5cccnc5)CC4)cc3C2)coc2ccccc12,inactive,
COc1ccccc1C1CN(CC(=O)N[C@H]2CCCCNC2=O)Cc2ccccc2O1 (stereo partly drawn),"inconclusive: 20 µM [inhibitor, single point]",
O=C1Nc2ccccc2[C@@]12O[C@H](COc1ccccc1)CC1=C2CCC1,,inactive: 12.2% [at 8.59 µM]
CC[C@H](C)[C@H](NC(=O)[C@H](CCCNC(=N)N)NC(=O)[C@H](CCCNC(=N)N)NC(=O)[C@H](CC(C)C)NC(=O)[C@H](Cc1ccccc1)NC(=O)CNC(=O)CNC(=O)[C@@H](N)Cc1ccc(O)cc1)C(=O)N[C@@H](CCCNC(=N)N)C(=O)N1CCC[C@H]1C(=O)N[C@@H](CCCCN)C(=O)N[C@@H](CC(C)C)C(=O)N[C@@H](CCCCN)C(=O)N[C@@H](Cc1c[nH]c2ccccc12)C(=O)N[C@@H](CC(=O)O)C(=O)N[C@@H](CC(N)=O)C(=O)N[C@@H](CCC(N)=O)C(=O)O,inactive,
Fc1ccc(-c2ncn(C3CCNCC3)c2-c2ccnc(Oc3ccc(F)c(F)c3)n2)cc1,"inconclusive: 22.3 µM [inhibitor, partial curve, poor fit]",
CC(C)CC1C(=O)N(Cc2cn(CCC3OCCCO3)nn2)CCS(=O)(=O)N1Cc1ccc(-c2ccc(Cl)c(Cl)c2)cc1 (stereo not drawn),"inconclusive: 35.3 µM [inhibitor, single point]",
O=C(c1cnsn1)N1CCOc2ccc(C(O)C(c3ccccc3)c3ccccc3)cc2C1 (stereo not drawn),"inconclusive: 12.6 µM [inhibitor, partial curve]",
O=C(O)c1ccc(-n2nc(-c3ccccc3O)nc2-c2ccccc2O)cc1,"inconclusive: 31.6 µM [inhibitor, single point]",
CC(C)C1C(=O)N(Cc2cn(CCC3OCCO3)nn2)CCS(=O)(=O)N1Cc1ccc(-c2ccc(Cl)c(Cl)c2)cc1 (stereo not drawn),"inconclusive: 6.28 µM [inhibitor, full curve, poor fit]",
COCCOC(=O)C1=C(C)NC(C)=C(C(=O)OC(C)C)C1c1cccc([N+](=O)[O-])c1 (stereo not drawn),"inconclusive: 14.1 µM [inhibitor, partial curve, poor fit]",
O=C(NCc1ccccc1)c1cccc(NC(=O)C2CCCC2)c1,,inconclusive: -30.9% [inhibitor]

# Reformatted tab-delimited: part of the list above
SMILES	Potency	activity change, negative = inhibition
COc1cccc(N(C)C(=S)Oc2ccc3c(c2)CCCC3)n1	inconclusive: 35.5 µM [inhibitor, single point]	
COc1ccccc1CCNc1ncnc2sc(C(=O)N3CCCC3)c(C)c12	inconclusive: 25.1 µM [inhibitor, single point]	
